{
  "source": "patent US10603322B2",
  "about": "“Therapeutic targeting of casein kinase 1δ in breast cancer” (The Scripps Research Institute, priority 2015, dated 2020)",
  "origin": "cited, not measured here",
  "tested_on": "BCM-4013 PDX tumors",
  "details": "mouse, in vivo; cited from earlier work",
  "note": "For at least one compound, name, drawing or mass did not settle the structure.",
  "data": [
    {"compound": "Cc1nc(Nc2ncc(C(=O)Nc3c(C)cccc3Cl)s2)cc(N2CCN(CCO)CC2)n1", "note": "[dasatinib]", "values": [
      {"measurement": "response of the BCM-4013 model to treatment", "value": "limited response"}
    ]}
  ]
}
